Assay results as given in PubChem BioAssay (EPA / NIEHS).
Several values for one entry are separate records, joined by “and”; a condition that tells them apart may be missing. Equal entries are not always repeated. The shares of active, inactive and inconclusive entries below differ from those in the screen. Where the call is inconclusive, the potency comes from a doubtful curve fit. A structure can be active in one record and inactive in another. Activity calls are given as the source filed them. Rule for the calls: active = hit-call score of the fitted dose curve at least 0.9, where 1 is the maximum; inconclusive = response in the unintended direction; inactive = score below 0.9.

Protein sequences, listed by entry. Tags and fused reporters are not part of them. Lines headed by an entry give the natural chain unless they say otherwise; changes in a name come on top.
UniProt P19793: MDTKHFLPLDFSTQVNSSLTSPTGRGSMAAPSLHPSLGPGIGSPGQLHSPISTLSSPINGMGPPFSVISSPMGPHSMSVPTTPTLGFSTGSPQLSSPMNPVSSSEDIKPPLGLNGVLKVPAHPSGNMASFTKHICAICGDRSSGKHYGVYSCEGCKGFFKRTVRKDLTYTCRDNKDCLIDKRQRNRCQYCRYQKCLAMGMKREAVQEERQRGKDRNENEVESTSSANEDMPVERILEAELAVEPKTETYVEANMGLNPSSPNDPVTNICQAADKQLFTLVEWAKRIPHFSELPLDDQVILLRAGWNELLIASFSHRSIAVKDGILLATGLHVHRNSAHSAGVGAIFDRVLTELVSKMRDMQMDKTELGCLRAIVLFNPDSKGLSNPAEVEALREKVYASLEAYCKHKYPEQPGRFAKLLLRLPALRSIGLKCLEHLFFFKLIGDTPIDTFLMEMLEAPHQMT
UniProt P04637, whole entry, looked up: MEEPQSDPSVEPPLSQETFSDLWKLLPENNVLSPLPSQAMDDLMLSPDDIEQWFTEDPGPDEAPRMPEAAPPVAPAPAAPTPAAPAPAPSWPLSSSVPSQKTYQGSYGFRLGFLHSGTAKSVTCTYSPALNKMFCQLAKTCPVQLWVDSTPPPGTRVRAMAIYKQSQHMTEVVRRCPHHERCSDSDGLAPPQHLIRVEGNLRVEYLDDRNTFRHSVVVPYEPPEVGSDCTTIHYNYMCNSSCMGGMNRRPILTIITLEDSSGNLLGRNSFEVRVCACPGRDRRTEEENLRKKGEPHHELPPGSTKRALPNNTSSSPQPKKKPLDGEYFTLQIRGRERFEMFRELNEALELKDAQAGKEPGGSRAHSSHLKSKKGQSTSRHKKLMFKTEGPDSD

Assays:
[1] = target: Retinoic acid receptor RXR-alpha (Homo sapiens) (UniProt P19793); assay: OT_NURR1_NURR1RXRa_1440: Odyssey Thera (OT) 24-hour HEK293T Protein Complementation Assay for Nurr1/retinoid X receptor (RXR) (AID 2283386)
In short: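 HEK293T cells were dosed with compound and read 24 h later by fluorescence intensity in a protein-fragment complementation format, where Nurr1–RXRα interaction reconstitutes a split reporter. Activity was fitted as gain of signal relative to DMSO baseline.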

[2] = ATG_XTT_Cytotoxicity: Cytotoxicity Assessment in the Attagene TRANS-FACTORIAL HepG2 Assay (AID 2283584);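 for AC50: cells exposed to compound for 24 h before reading; active means loss of viability signal versus DMSO baseline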
In short: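 Viability endpoint from XTT after 24 h chemical exposure of reporter-transfected human HepG2 liver cells; signal loss fitted relative to DMSO negative control.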

[3] = TOX21_p53_BLA_p2_viability: Viability Assessment in the Tox21 HCT-116 p53 Agonism Beta-lactamase Assay, Phase 2 (AID 2283591);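 note: compound exposure lasted 16 h at 37 °C; actives lower the ATP signal meaning cytotoxicity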
In short: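 HCT116 p53-bla cells, 4000/well, dosed after 5 h plating (217-fold dilution of DMSO stocks) and incubated 16 h at 37C. Viability taken as cellular ATP by CellTiter-Glo luminescence after 30 min RT; signal loss marks cytotoxicity.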

[4] = target: Cellular tumor antigen p53 (Homo sapiens) (UniProt P04637); assay: TOX21_p53_BLA_p2_ratio: Tox21 HCT-116 p53 Agonism Beta-lactamase Assay, Ratio, Phase 2 (AID 2283592)
In short: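 Gain-of-signal p53 agonism was scored from the beta-lactamase FRET ratio (460/530 nm, 405 nm excitation) in HCT116 cells treated 16 h at 37C, 5% CO2, with DMSO serving as negative control and baseline.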

[5] = TOX21_p53_BLA_p3_viability: Viability Assessment in the Tox21 HCT-116 p53 Agonism Beta-lactamase Assay, Phase 3 (AID 2283593);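 note: cells exposed to compound for 16 h before reading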
In short: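 HCT116 cells, 4000/well, dosed 5 h after plating by pin transfer (217-fold dilution from DMSO stock) and incubated 16 h at 37C, 5% CO2. Viability read as ATP luminescence with CellTiter-Glo after 30 min at room temperature.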

[6] = target: Cellular tumor antigen p53 (Homo sapiens) (UniProt P04637); assay: TOX21_p53_BLA_p5_ratio: Tox21 HCT-116 p53 Agonism Beta-lactamase Assay, Ratio, Phase 5 (AID 2283599)
In short: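 HCT-116 p53-bla cells (4000/well) plated 5 h, dosed with compound (217-fold DMSO dilution) for 16 h at 37 C; CCF4-AM substrate 2 h at room temperature. Activity is the 460/530 nm emission ratio (405 nm excitation), fitted in gain-of-signal direction versus DMSO.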

[7] = TOX21_p53_BLA_p5_viability: Viability Assessment in the Tox21 HCT-116 p53 Agonism Beta-lactamase Assay, Phase 5 (AID 2283600)
In short: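 After the 460/530 nm beta-lactamase measurement, the wells received an ATP-detection luciferase reagent; signal was read 30 min later at RT. Compound treatment lasted 16 h on cells pre-incubated 5 h post-seeding.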

[8] = target: Cellular tumor antigen p53 (Homo sapiens) (UniProt P04637); assay: TOX21_p53_BLA_p4_ratio: Tox21 HCT-116 p53 Agonism Beta-lactamase Assay, Ratio, Phase 4 (AID 2283601)
In short: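 HCT-116 p53 beta-lactamase reporter cells (4000/well) preincubated 5 h, then compound (217-fold dilution of DMSO stock) for 16 h at 37C. CCF4-AM substrate added 2 h at room temperature; 460/530 nm emission ratio fitted upward versus DMSO.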

[9] = target: Cellular tumor antigen p53 (Homo sapiens) (UniProt P04637); assay: TOX21_p53_BLA_p3_ratio: Tox21 HCT-116 p53 Agonism Beta-lactamase Assay, Ratio, Phase 3 (AID 2283596)
In short: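 HCT116 p53-bla cells (4000/well) given compound in DMSO (217-fold dilution) after 5 h, incubated 16 h at 37C. CCF4-AM substrate 2 h at room temperature; 460/530 nm emission ratio, gain fitted against DMSO.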

[10] = TOX21_p53_BLA_p4_viability: Viability Assessment in the Tox21 HCT-116 p53 Agonism Beta-lactamase Assay, Phase 4 (AID 2283597);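 note: hits lower the luminescence signal meaning cytotoxicity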
In short: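 Following a 16 h exposure at 37C, the treated HCT116 wells were first read for the FRET ratio. They were then lysed with CellTiter-Glo, and ATP luminescence was recorded after 30 min at room temperature.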

[11] = Tanguay_ZF_120hpf_AXIS_legacy: (Legacy) Oregon State University Tanguay Lab 120 Hour Post-fertilization zebrafish Assay for Body Axis Malformation (AID 2283635);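 note: potency for an increased fraction of larvae scored with body axis malformation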
In short: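 Binary scoring of axis defects at 120 hpf under brightfield, fitted positive versus DMSO. Tropical 5D embryos, chorion removed by pronase at 4 hpf, were singly exposed in sealed, dark plates at 28C from 6 hpf; DMSO 0.64% final.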

[12] = Tanguay_ZF_120hpf_YSE_legacy: (Legacy) Oregon State University Tanguay Lab 120 Hour Post-fertilization zebrafish Assay for Yolk Sac Edema (AID 2283634);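 note: actives raise the incidence of yolk sac edema above the DMSO baseline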
In short: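 Presence or absence of yolk sac edema was recorded at 120 hpf in surviving larvae. These were wild-type Tropical 5D embryos, chorion removed at 4 hpf, held in static exposure at 28C from 6 hpf with 0.64% DMSO vehicle.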

[13] = Tanguay_ZF_120hpf_SNOU_legacy: (Legacy) Oregon State University Tanguay Lab 120 Hour Post-fertilization zebrafish Assay for Snout Malformation (AID 2283637)
In short: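 Dechorionated tropical 5D wild-type zebrafish embryos exposed statically from 6 to 120 hpf at 28C, one per well, in 0.64% DMSO. Snout malformation scored as present/absent by brightfield at 120 hpf; dead embryos not scored.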

Measured: AC50

NC(=Nc1ccccc1)Nc1ccccc1
inconclusive: [2] 0.0292 µM | [3] 1.35 µM | [4] 14.2 µM | [5] 2.28 µM | [6] 23 µM | [7] 23 µM | [8] 12.5 µM
active: [1] 11.6 µM
inactive: [7]

C[C@]12C=CC(=O)C=C1CC[C@@H]1[C@@H]2C(=O)C[C@@]2(C)[C@H]1CC[C@]2(O)C(=O)CO
inconclusive: [1] 50 µM | [3] 46.1 µM and 44.9 nM | [4] 70 µM | [5] 40.9 µM | [9] 46.1 µM and 46.2 µM and 23 µM | [10] 46.1 µM and 46.2 µM | [6] 46.1 µM and 46.2 µM | [7] 46.1 µM and 23 µM | [8] 46.1 µM and 46.2 µM and 43.3 µM | [11] 45.6 µM
inactive: [7]

c1ccc(CCCc2ccccn2)cc1
inconclusive: [1] 50 µM | [10] 80 µM
inactive: [2] | [3] | [4] | [5] | [6]

COc1ccc(C(=O)c2ccccc2)c(O)c1
inactive: [5] | [9] | [7]
inconclusive: [1] 85.5 µM | [3] 46.1 µM and 45.5 µM | [5] 46.1 µM and 45.5 µM | [9] 46.1 µM and 0.0815 nM | [10] 46.1 µM and 2.24 µM and 23 µM | [7] 45.5 µM and 23 µM

O=[N+]([O-])c1ccc(O)cc1
inactive: [3] | [4] | [9] | [6]
inconclusive: [1] 50 µM | [5] 46.1 µM | [10] 46.1 µM | [12] 49.4 µM | [13] 2.48 µM

C[C@]12C[C@H](O)[C@H]3[C@@H](CCC4=CC(=O)CC[C@@]43C)[C@@H]1CC[C@@H]2C(=O)CO
inactive: [10] | [6]
inconclusive: [1] 50 µM | [2] 100 µM | [9] 23 µM | [10] 23 µM | [6] 37.6 µM | [7] 46.1 µM and 46.2 µM and 23 µM | [8] 66.7 µM and 23 µM

C=C1C2CCC(C2)C1(C)C (stereo not given)
inconclusive: [1] 2.36 µM | [3] 0.21 µM | [10] 46.1 µM | [7] 80.3 µM
inactive: [2] | [7]

CC1(C)[C@@H]2CC[C@@]1(C)C(=O)C2
inconclusive: [3] 23 µM | [4] 46.1 µM | [5] 46.1 µM | [10] 46.1 µM and 23 µM | [7] 46.1 µM | [8] 46.1 µM and 23 µM
inactive: [1] | [5] | [8]

C=C[C@@]1(C)CC(=O)[C@]2(O)[C@@]3(C)[C@@H](O)CCC(C)(C)[C@@H]3[C@H](O)[C@H](OC(C)=O)[C@@]2(C)O1
active: [1] 0.396 µM | [10] 27.1 µM
inconclusive: [2] 100 µM | [3] 46.1 µM | [6] 23 µM
inactive: [4] | [10] | [7]

C=C(C)C1CC=C(C)CC1 (stereo not given)
inactive: [1] | [9] | [7]
inconclusive: [3] 47.5 µM and 23 µM | [5] 45.2 µM | [9] 89.6 µM | [6] 47.5 µM

Quoted at random: 2 entries already listed.
C=C(C)C1CC=C(C)CC1 (stereo not given)
inactive: [1] | [9] | [7]
inconclusive: [3] 47.5 µM and 23 µM | [5] 45.2 µM | [9] 89.6 µM | [6] 47.5 µM

C=C[C@@]1(C)CC(=O)[C@]2(O)[C@@]3(C)[C@@H](O)CCC(C)(C)[C@@H]3[C@H](O)[C@H](OC(C)=O)[C@@]2(C)O1
active: [1] 0.396 µM | [10] 27.1 µM
inconclusive: [2] 100 µM | [3] 46.1 µM | [6] 23 µM
inactive: [4] | [10] | [7]

Additional results follow.

CCCCCCCCOC(=O)c1cc(O)c(O)c(O)c1
active: [1] 68.5 µM | [3] 27.6 µM | [4] 50 µM | [5] 67.9 µM | [9] 36.8 µM | [10] 32.9 µM | [7] 42.6 µM | [8] 62.6 µM
inactive: [2]

NC(=O)N=NC(N)=O
inconclusive: [1] 50 µM | [3] 46.1 µM | [5] 46.1 µM and 46.2 µM | [9] 46.1 µM and 46.2 µM | [10] 46.1 µM | [8] 82.6 µM
inactive: [3] | [7]

C#C[C@]1(O)CC[C@H]2[C@@H]3CCc4cc(OC)ccc4[C@H]3CC[C@@]21C
inactive: [3]
active: [1] 78.8 µM
inconclusive: [4] 85.1 µM | [8] 46.1 µM
